Assay results as given in US20180327375A1, “AROMATIC SURFACTANTS” (REGENTS OF THE UNIVERSITY OF MINNESOTA, priority 2015, published 2018).
Values joined by “and” are separate entries in the source; they are usually repeats but may differ in a detail not shown here. Equal entries are not always repeated. Structures can show the parent of a compound that is named as a salt.

How the values were obtained:
[1] = Draves wetting test (ASTM D2281 skein test); format: physicochemical; details: 0.25 wt % surfactant in water, around Krafft point
[2] = Surfactant foaming by bubbling air through the solution; format: physicochemical; details: 0.5 wt % in water; for Foam Height60 hi-60/hSLS-60: foam height at 60 minutes normalized to SLS; for Foam Growth Rate ri/rSLS: initial growth rate normalized to SLS

Compound	Draves Wetting (wetting time TD) [1]	Foam Height60 hi-60/hSLS-60 [2]	Foam Growth Rate ri/rSLS [2]	Draves Wetting (wetting time TD) ([1]; sulfate)
CCCCCCCc1ccc(S(=O)(=O)[O-])o1.[Na+] [OFS-7, Sodium 5-Heptylfuran-2-Sulfonate]	> 3600 s	0.12	1.04	
CCCCCCCCCCCCc1ccc(S(=O)(=O)[O-])o1.[Na+] [OFS-12, Sodium 5-Dodecylfuran-2-Sulfonate]	48.9 s and 48.9 ± 13.3 s	2.11	1.83	
CCCCCCCCCCCCCCc1ccc(S(=O)(=O)[O-])o1.[Na+] [OFS-14, Sodium 5-Tetradecylfuran-2-Sulfonate]	39.4 s and 39.4 ± 7.0 s	0.75	2.34	
CCCCCCCCCCCCOS(=O)(=O)O [SLS, sodium dodecyl sulfate, reference compound]		1.00	1.00	6.3 s and 6.3 ± 2.7 s
sodium lauryl ether sulfate [SLES, reference compound]	15.4 s and 15.4 ± 4.0 s			
